{"source": "PubChem BioAssay AID1487", "about": "(National Center for Advancing Translational Sciences (NCATS), 2009)", "note": "Among all 200,000 compounds or so, about 25 (0.01%) were called active. This list was built around the results that the source calls inconclusive (neither active nor inactive); the mix of calls is not that of the screen. Calls come from the whole dose curve; as a rule, active = well fitted inhibition curve with a large enough effect in the signal ratio, with a control signal flat (not every such curve was filed as active); inconclusive = small, poorly fitted or top-dose-only effect, or effect the other way, or a change in a side signal; inactive = flat fitted curve, though single readings scatter; the % refers to the signal ratio. Where the call is inconclusive, the potency comes from a doubtful curve fit. % is set by controls: 0 for no effect and ±100 for the full control effect; potency is the fitted concentration of half-maximal effect.", "data": [{"assay": "qHTS Assay for Modulators of Lamin A Splicing", "conditions": "HeLa LMNA splicing GFP/RFP minigene ratio, 48 h; ratio change, negative = inhibition: at 46.1 µM (top of the series) unless noted", "how_it_was_run": "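S3 HeLa stable clones carrying a lamin A-EGFP splicing minigene plus DsRed2 were seeded at 600 cells/well in Opti-MEM with 2% FBS, pin-dosed and incubated 48 h at 37°C. Acumen cytometry (488 nm) gave the GFP/RFP total-intensity ratio.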", "values": [{"smiles": "Cc1cccc(/C=C(\\c2nc3ccccc3[nH]2)S(=O)(=O)c2ccccc2)c1", "Potency": "inconclusive: 2.24 µM [inhibitor, partial curve]"}, {"smiles": "N#CCC(=O)Nc1nc(-c2ccc3c(c2)OCCO3)cs1", "ratio change, negative = inhibition": "inconclusive: -26.9% [at 46 µM]"}, {"smiles": "COc1ccc(NS(=O)(=O)c2ccc(OC)c(N(C)S(=O)(=O)c3ccc(Cl)cc3)c2)cc1", "ratio change, negative = inhibition": "inconclusive: 10.2%"}, {"smiles": "Cc1nsc2c1ccc1ccccc12", "ratio change, negative = inhibition": "inconclusive: 12.7% [at 46 µM]"}, {"smiles": "Cc1cccc(NC(=O)c2oc(=O)c3ccccc3c2-c2ccccc2)c1C", "ratio change, negative = inhibition": "inconclusive: -28.1%"}, {"smiles": "COc1ccc(S(=O)(=O)N2CCCCC2)cc1", "ratio change, negative = inhibition": "inconclusive: 4.66%"}, {"smiles": "O=C(c1ccc(F)cc1)N1c2nc(-c3ccco3)nn2C2(CCCCC2)[C@@H]2CCCC[C@@H]21", "ratio change, negative = inhibition": "inconclusive: 11.2% [at 46 µM]"}, {"smiles": "O=C(Cc1cccc2ccccc12)N/N=C/c1ccc(O)c([N+](=O)[O-])c1", "ratio change, negative = inhibition": "inconclusive: -0.102% [at 46 µM]"}, {"smiles": "CCOc1cc(-c2nnc(SCC(=O)Nc3ccc(F)c(F)c3)nc2-c2ccc(OC)c(OCC)c2)ccc1OC", "ratio change, negative = inhibition": "inactive: -13.5% [at 46 µM]"}, {"smiles": "CCC(=O)Nc1nnc(SCc2cc(=O)c3cc(C)ccc3[nH]2)s1", "ratio change, negative = inhibition": "inconclusive: 7.15% [at 46 µM]"}, {"smiles": "CCOC(=O)c1c[nH]c(=S)n1C", "ratio change, negative = inhibition": "inconclusive: 6.69% [at 46 µM]"}, {"smiles": "O=S(=O)(Nc1ccc(-c2ccc(N3CCCC3)nn2)cc1)c1ccc(Cl)cc1", "ratio change, negative = inhibition": "inactive: 23.7% [at 46 µM]"}, {"smiles": "O=C(NNC(=S)Nc1cccc(C(F)(F)F)c1)c1cccc(Cl)c1", "Potency": "inconclusive: 11.2 µM [fluorescent, partial curve]"}, {"smiles": "O=C(NCCc1ccc(Cl)cc1)/C(=C/c1cccnc1)NC(=O)c1ccccc1", "ratio change, negative = inhibition": "inactive: -12%"}, {"smiles": "Oc1ccc(/C=N/NC(=S)Nc2cccnc2)c(O)c1", "Potency": "inconclusive: 25.1 µM [fluorescent, single point]"}, {"smiles": "COc1ccc(/C=C(/C(=O)c2ccc(Cl)cc2Cl)n2cncn2)cc1", "ratio change, negative = inhibition": "inconclusive: -36.1%"}, {"smiles": "COC(=O)c1nnn(CC(=O)NC(=O)Nc2cccc(C)c2C)c1C(=O)OC", "ratio change, negative = inhibition": "inactive: -1.64%"}, {"smiles": "Cn1c(=O)c2c(nc(N3CCCCCC3)n2CC(O)COc2ccccc2)n(C)c1=O", "note": "(configuration not stated)", "ratio change, negative = inhibition": "inactive: -1.25%"}, {"smiles": "CCOC(=O)N1CCC(n2c(SCC(=O)N3CCC(C)CC3)nc3ccccc3c2=O)CC1", "ratio change, negative = inhibition": "inconclusive: -11.1%"}, {"smiles": "CN1CCN(NC(=O)c2cn(-c3ccccc3)nc2-c2cccc(Br)c2)CC1", "ratio change, negative = inhibition": "inconclusive: -22.3% [at 46 µM]"}, {"smiles": "O=C(/C=C/c1ccc(F)cc1)N1CC[C@@]2(O)CCCC[C@H]2C1", "ratio change, negative = inhibition": "inconclusive: -7.49% [at 46 µM]"}, {"smiles": "CN(c1ccc(C(=O)NCCSCc2ccc(Cl)cc2)cc1)S(=O)(=O)c1ccccc1", "ratio change, negative = inhibition": "inconclusive: -47.6%"}, {"smiles": "O=C(NCC(F)(F)F)Nc1cccnc1", "ratio change, negative = inhibition": "inactive: -5.2%"}, {"smiles": "O=C(c1sc2ccccc2c1Cl)N(Cc1ccccc1Cl)C1CCS(=O)(=O)C1", "note": "(configuration not stated)", "ratio change, negative = inhibition": "inconclusive: 47.9%"}, {"smiles": "Cc1c(C(=O)NCCN2CCOCC2)oc2ccc(S(=O)(=O)N3CCCCCC3)cc12", "ratio change, negative = inhibition": "inactive: -5.87%"}, {"smiles": "COc1cccc(C(=O)CSc2nc3ccccc3n2CC(=O)N(C(C)C)C(C)C)c1", "ratio change, negative = inhibition": "inactive: -9.66%"}, {"smiles": "COc1ccccc1CNC(=O)COC(=O)[C@H](Cc1c[nH]c2ccccc12)NC(=O)c1cccs1", "ratio change, negative = inhibition": "inconclusive: -11.8%"}, {"smiles": "COCc1nnc(NC(=O)c2cccc(NC(=O)C(C)C)c2)s1", "ratio change, negative = inhibition": "inconclusive: 18.6% [at 46 µM]"}, {"smiles": "COc1ccc(S(=O)(=O)Cc2ccc(C(=O)N3CCN(c4cccc(C)c4)C(C)C3)o2)cc1", "note": "(configuration not stated)", "ratio change, negative = inhibition": "inconclusive: -15.3%"}, {"smiles": "Cc1ccc(N/N=C(\\C#N)C(N)=S)cc1C", "ratio change, negative = inhibition": "inconclusive: -48.1% [at 46 µM]"}, {"smiles": "O=C(Nc1cccc(F)c1)c1ccco1", "ratio change, negative = inhibition": "inconclusive: 33.4% [at 46 µM]"}, {"smiles": "CN(C)CCCN(C(=O)c1ccc(Br)s1)c1nc2cc3c(cc2s1)OCO3", "ratio change, negative = inhibition": "inconclusive: -28.4% [at 46 µM]"}, {"smiles": "CC(C)CC(=O)c1c[nH]c(C(=O)N2CCN(Cc3ccccc3)CC2)c1", "ratio change, negative = inhibition": "inconclusive: 12.2% [at 46 µM]"}, {"smiles": "CC(=O)c1ccc2noc(-c3ccccc3)c2c1", "ratio change, negative = inhibition": "inconclusive: -10.1% [at 46 µM]"}, {"smiles": "O=C(Oc1cc(=O)n2ccccc2n1)c1ccccc1", "ratio change, negative = inhibition": "inactive: 2.49%"}, {"smiles": "CC(SCc1ccccc1)C(=O)N/N=C/c1cc2c(cc1Br)OCO2", "note": "(configuration not stated)", "Potency": "inconclusive: 20 µM [fluorescent, single point]"}, {"smiles": "c1ccc(-c2noc(CN3CCOCC3)n2)cc1", "ratio change, negative = inhibition": "inconclusive: 7.41% [at 46 µM]"}, {"smiles": "CCC1Sc2ccccc2N(CC(=O)NCCC(C)C)C1=O", "note": "(configuration not stated)", "ratio change, negative = inhibition": "inconclusive: 15.9%"}, {"smiles": "CC(=O)N1CCCc2cc(S(=O)(=O)N3CCC(C(=O)NCc4cccc(C)c4)CC3)ccc21", "ratio change, negative = inhibition": "inconclusive: -9.61% [at 46 µM]"}, {"smiles": "Cc1ccc(C(C(=O)NCc2ccco2)N(C(=O)Cc2cccs2)c2cccnc2)cc1", "note": "(configuration not stated)", "ratio change, negative = inhibition": "inconclusive: -2.26% [at 46 µM]"}, {"smiles": "O=C(NN1C(=O)c2ccccc2NC1c1ccccn1)c1ccccc1", "note": "(configuration not stated)", "ratio change, negative = inhibition": "inconclusive: -10.1%"}, {"smiles": "COCCn1c(N)c(N(Cc2ccccc2)C(=O)Cc2ccccc2F)c(=O)[nH]c1=O", "ratio change, negative = inhibition": "inconclusive: 5.64% [at 46 µM]"}, {"smiles": "N#Cc1ccc(C(c2ccc(C#N)cc2)n2cncn2)cc1", "ratio change, negative = inhibition": "inconclusive: -11.7%"}, {"smiles": "O=c1c(-c2cc(F)cc(F)c2)nc2cncnc2n1Cc1ccccc1Cl", "ratio change, negative = inhibition": "inconclusive: -5.84%"}, {"smiles": "CSCCC(NC(=O)c1ccc(Br)cc1)C(=O)O", "note": "(configuration not stated)", "ratio change, negative = inhibition": "inconclusive: -2.54% [at 46 µM]"}, {"smiles": "CCc1ccc(C(=O)c2cncc(Br)c2)cc1", "ratio change, negative = inhibition": "inactive: 16%"}, {"smiles": "CN(C)c1ncc2nc(-c3ccc(Cl)cc3)c(=O)n(C)c2n1", "ratio change, negative = inhibition": "inactive: 11.8%"}, {"smiles": "CCOC(=O)Cn1c(=O)c2c(nc3n2CCN3c2ccc(CC)cc2)n(C)c1=O", "ratio change, negative = inhibition": "inconclusive: -31.1% [at 46 µM]"}, {"smiles": "CSc1nncc(-c2ccccc2)n1", "ratio change, negative = inhibition": "inconclusive: 4.61% [at 9.22 µM]"}, {"smiles": "O=C(OCC(=O)c1ccc[nH]1)c1ccccc1", "ratio change, negative = inhibition": "inconclusive: 7.24% [at 9.22 µM]"}, {"smiles": "O=[N+]([O-])c1ccc(N/N=C/c2c[nH]c3ccccc23)c(S(=O)(=O)Nc2ccc(Cl)cc2)c1", "ratio change, negative = inhibition": "inactive: 1.72%"}, {"smiles": "O=C(CCN1C(=O)c2ccccc2S1(=O)=O)NCc1ccco1", "ratio change, negative = inhibition": "inactive: 10.8%"}]}]}
